Results of single-concentration screens

The chains behind the UniProt entries cited, without tags or fusion partners. Residues count along the entry.
UniProt A4I591, 1-473: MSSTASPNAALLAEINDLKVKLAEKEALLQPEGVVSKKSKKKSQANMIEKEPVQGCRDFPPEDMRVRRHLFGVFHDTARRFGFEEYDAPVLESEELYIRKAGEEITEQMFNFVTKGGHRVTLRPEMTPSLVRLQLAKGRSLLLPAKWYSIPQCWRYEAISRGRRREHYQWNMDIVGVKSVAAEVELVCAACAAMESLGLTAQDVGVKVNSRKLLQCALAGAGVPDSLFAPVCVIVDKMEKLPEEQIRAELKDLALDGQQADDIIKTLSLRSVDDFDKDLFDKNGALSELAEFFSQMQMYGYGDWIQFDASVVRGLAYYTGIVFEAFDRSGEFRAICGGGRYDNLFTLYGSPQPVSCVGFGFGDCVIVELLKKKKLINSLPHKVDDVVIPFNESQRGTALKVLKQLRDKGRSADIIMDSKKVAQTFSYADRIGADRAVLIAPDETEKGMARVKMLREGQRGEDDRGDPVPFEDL
UniProt P9WNZ1, whole entry: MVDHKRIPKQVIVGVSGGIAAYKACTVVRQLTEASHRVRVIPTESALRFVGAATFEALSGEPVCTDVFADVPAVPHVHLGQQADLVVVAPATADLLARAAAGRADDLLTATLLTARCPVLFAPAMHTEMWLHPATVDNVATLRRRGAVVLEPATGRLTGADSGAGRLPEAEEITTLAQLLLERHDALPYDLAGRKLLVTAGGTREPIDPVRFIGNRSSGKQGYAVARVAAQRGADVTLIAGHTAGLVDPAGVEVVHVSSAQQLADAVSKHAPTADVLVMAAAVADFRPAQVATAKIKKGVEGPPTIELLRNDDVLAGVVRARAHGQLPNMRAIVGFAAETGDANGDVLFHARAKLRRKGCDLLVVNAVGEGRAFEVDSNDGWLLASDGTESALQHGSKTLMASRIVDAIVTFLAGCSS
UniProt P9WFT3, whole entry: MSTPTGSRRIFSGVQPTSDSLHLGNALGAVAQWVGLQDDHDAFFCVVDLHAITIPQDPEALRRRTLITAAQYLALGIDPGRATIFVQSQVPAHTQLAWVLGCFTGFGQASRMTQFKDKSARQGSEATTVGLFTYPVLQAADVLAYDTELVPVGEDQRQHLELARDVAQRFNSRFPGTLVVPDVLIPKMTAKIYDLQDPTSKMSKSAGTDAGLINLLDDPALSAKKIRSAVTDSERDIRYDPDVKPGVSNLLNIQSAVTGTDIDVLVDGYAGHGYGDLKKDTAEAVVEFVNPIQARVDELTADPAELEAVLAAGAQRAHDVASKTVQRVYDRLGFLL

LiHisRS: 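Histidine-tRNA ligase, Leishmania infantum (UniProt A4I591). Enzyme assay of histidyl-tRNA synthetase; the read-out is not stated. Concentration: 30 µM. Direction is inferred from retests: higher values go with stronger inhibition. The assay is labelled LdHisRS but filed under L. infantum. Of about 69,000 compounds tested this way, about 410 (0.6%) reached 50% or more in at least one test.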
CoaBC: 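Enzyme assay of CoaBC with a phosphate dye (Biomol Green) read at 650 nm. Target: Coenzyme A biosynthesis protein CoaBC, Mycobacterium tuberculosis (UniProt P9WNZ1). Compounds at 30 µM. Higher reads as stronger inhibition, judged from the few compounds that gave an IC50. Most strong results did not repeat in a second test. Of about 67,000 compounds tested this way, about 40 (0.06%) reached 50% or more in at least one test.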
MtTrpRS: 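Enzyme assay of tryptophanyl-tRNA synthetase; the read-out is not stated. Target: Tryptophan-tRNA ligase, Mycobacterium tuberculosis (UniProt P9WFT3). Tested at 10 µM. Higher most likely means stronger inhibition; the record gives no direction and few retests gave an IC50. About 65,000 compounds were tested under these conditions; 0.098% (about 64) showed 50% or more at least once.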

Values are the deposited “Percent Effect”, in %.
The record does not define 0% and 100%; most values in the screen are far below 50% and negative numbers occur (in some assays of this library far below -100).
This is an unselected part of the compounds tested.

{"compound": "Cc1ccc(O)c(CN(Cc2ccccc2)Cc2nccs2)n1", "LiHisRS": 12, "CoaBC": 6.188, "MtTrpRS": -0.2075}
{"compound": "O=C(NCc1ccoc1)Nc1ccc(CN2CCOC2=O)cc1", "LiHisRS": 2.885, "CoaBC": -4.641, "MtTrpRS": 4.36}
{"compound": "COc1ccccc1C(=O)Nc1c(F)c(C(=O)NCCC(C)C)nn1C", "LiHisRS": 20.88, "CoaBC": -1.205, "MtTrpRS": 7.314}
{"compound": "COc1ncccc1CNCc1cnc(N2CCOCC2)nc1", "LiHisRS": 17.33, "CoaBC": 4.97, "MtTrpRS": 0.6256}
{"compound": "COCc1nccc(C2CCCN(Cc3ccc(C#N)cc3F)C2)n1", "stereo": "stereo unspecified", "LiHisRS": 14.91, "CoaBC": 7.662, "MtTrpRS": 4.668}
{"compound": "Cc1cccc(CN2C[C@@H]3CN(C(=O)c4ccsc4)C[C@@H]3C2=O)n1", "LiHisRS": 28.57, "CoaBC": 2.28, "MtTrpRS": -1.953}
{"compound": "COC(=O)C1CCN(C(=O)NCC(C)Cc2cccs2)CC1", "stereo": "stereo unspecified", "LiHisRS": 9.091, "CoaBC": -2.621, "MtTrpRS": -2.018}
{"compound": "CNc1ccc(CC2CCCN(C(=O)c3cnco3)C2)nn1", "stereo": "stereo unspecified", "LiHisRS": 18.84, "CoaBC": 0.9709}
{"compound": "O=C(c1cc[nH]n1)N(Cc1ccc(F)cc1)CC1CC1", "LiHisRS": 19.35, "CoaBC": -4.423, "MtTrpRS": 4.231}
{"compound": "CCCNC(=O)c1cn(C(C)(C)C)c2ncccc12", "LiHisRS": 19.8, "CoaBC": 2.427}
{"compound": "Cc1cc(C(=O)N2CCO[C@H]3[C@H](Oc4ccccn4)CC[C@@H]32)c(C)[nH]1", "LiHisRS": 17, "CoaBC": 7.293, "MtTrpRS": 3.412}
{"compound": "CCNc1cc2c(nn1)CCN(C(=O)CCc1c(C)noc1Cl)C2", "LiHisRS": 11.61, "CoaBC": 0.1277, "MtTrpRS": -2.128}
{"compound": "CN(C)Cc1cn(CC2CCCN(c3nccc4occc34)C2)nn1", "stereo": "stereo unspecified", "LiHisRS": 19.37, "CoaBC": -8.261, "MtTrpRS": 4.721}
{"compound": "Cc1ccc(Br)cc1S(=O)(=O)NCCc1nnc[nH]1", "LiHisRS": 2.679, "CoaBC": 3.719, "MtTrpRS": 2.969}
{"compound": "COc1ccc(CNCc2c(C)nc3sc(C)cn23)c(OC)c1OC", "LiHisRS": -3.03, "CoaBC": -4.234, "MtTrpRS": 6.66}
{"compound": "CCOCC(=O)Nc1cc(C)cnc1OC", "LiHisRS": 9.524, "CoaBC": 1.621, "MtTrpRS": 0.5623}
{"compound": "Cc1cnc(CCN(C)C(=O)c2ccc(O)nc2C)s1", "LiHisRS": 3.797, "CoaBC": 3.929, "MtTrpRS": 0.05974}
{"compound": "COCC(=O)N[C@H]1C[C@@H](Cc2cc(CN3CCCCC3)on2)C1(C)C", "LiHisRS": -13.89, "CoaBC": -2.581, "MtTrpRS": 6.041}
{"compound": "Cc1ccc(C(=O)N2CCC3(CC2)CC(c2ccccc2)C(=O)N3)o1", "stereo": "stereo unspecified", "LiHisRS": 20, "CoaBC": 9.446, "MtTrpRS": 0.9764}
{"compound": "Cc1ccc(N2CC[C@@H]3[C@@H](CO[C@H]3CNC(=O)c3ccco3)C2)nn1", "LiHisRS": 26.32, "CoaBC": 3.055, "MtTrpRS": -5.591}
{"compound": "COc1cc(C)nc(N2CCN(C(=O)c3ccn(C)c(=O)c3)CC2)n1", "LiHisRS": 12.5, "CoaBC": 5.263, "MtTrpRS": -6.498}
{"compound": "CNC(=O)[C@@]12CCC3(CCN(S(C)(=O)=O)CC3)[C@@H]1CN(C(C)=O)C2", "LiHisRS": 6.944, "CoaBC": -6.667, "MtTrpRS": -10.44}
{"compound": "COc1ccc(-c2cc3nc(CCNC(=O)C4CC4)nn3cn2)cc1", "LiHisRS": -1.399, "CoaBC": -5.811, "MtTrpRS": 9.073}
{"compound": "CC(C)CN1C(=O)C2(CCN(Cc3ccc(F)cc3)C2)c2ccccc21", "stereo": "stereo unspecified", "LiHisRS": 19.18, "CoaBC": 3.557, "MtTrpRS": 10.35}

The first 2 entries again:

Cc1ccc(O)c(CN(Cc2ccccc2)Cc2nccs2)n1 gave LiHisRS: 12%; CoaBC: 6.188%; MtTrpRS: -0.2075%.
O=C(NCc1ccoc1)Nc1ccc(CN2CCOC2=O)cc1 gave LiHisRS: 2.885%; CoaBC: -4.641%; MtTrpRS: 4.36%.

Source: ChEMBL document CHEMBL3988442, “University of Dundee, Small-Polar-MMV Screening Library” (2021).